The source of these data is patent publication US11230581B2, “Peptides and combination of peptides for use in immunotherapy against ovarian cancer and other cancers” (Immatics Biotechnologies GmbH, priority 2015, dated 2022).

Series [1] deals with ovarian cancer samples. The series can be described thus: Relative LC-MS quantitation of HLA-presented peptides: presentation and over-presentation on ovarian cancer vs a panel of normal tissues (presentation score). More on the design: species or system human; key: +++: very highly over-presented on tumors compared to a panel of normal tissues; ++: highly over-presented on tumors compared to a panel of normal tissues; +: over-presented on tumors compared to a panel of normal tissues. The settings on record: over-presentation on tumors compared to a panel of normal tissues.

Series [2] deals with additional tumor types. The series can be described thus: LC-MS detection and over-presentation of the peptides on additional tumor types, cell lines and primary cultures. The arrangement: species or system human. The settings on record: for Other relevant organs/ cancerous diseases: Table 4A: additional tumor types on which the peptide was found, over-presented on more than 5% of measured tumor samples, or presented on more than 5% with ratio of geometric means tumor vs normal tissues larger than 3; for Additional organs/cancerous diseases: additional tumor types with over-presentation on more than 5% of the measured tumor samples, or presentation on more than 5% with ratio of geometric means tumor vs normal tissues larger than 3.

In the case of “474 (YLDPALELGPRNV; listed as Homo sapiens) [compound 474]”, the “Peptide Presentation (presentation score)” value (shortened to “Peptide Presentation”) in series [1] is reported as “+”. Besides, in series [2], the “Other relevant organs/ cancerous diseases” value is “NSCLC, SCLC, Brain Cancer, HCC, MCC, Melanoma” and the Additional organs/cancerous diseases result is given as “BRCA”.

For the substance “475 (LLLNEEALAQI; listed as Homo sapiens) [compound 475]”, the “Peptide Presentation” value in series [1] is reported as “+++”. In addition, the “Other relevant organs/ cancerous diseases” value in series [2] is recorded as “SCLC, Leukemia”.

Consider “476 (ALMERTGYSMV; listed as Homo sapiens) [compound 476]”, for which the “Peptide Presentation” value in series [1] is on record as “+++”. Moreover, in series [2], the “Other relevant organs/ cancerous diseases” value is “HCC” and the Additional organs/cancerous diseases entry is “Uterine Cancer”.

As for “477 (ALLPASGQIAL; listed as Homo sapiens) [compound 477]”, the “Peptide Presentation” value in series [1] is listed as “+++”. In series [2], the “Other relevant organs/ cancerous diseases” value is “NSCLC, HCC, Esophageal Cancer, Urinary bladder Cancer”; the Additional organs/cancerous diseases entry is “CLL, BRCA, Melanoma, Gallbladder Cancer and Bile Duct Cancer, HNSCC”.

On to “478 (YLLHEKLNL; listed as Homo sapiens) [compound 478]”, for which the “Peptide Presentation” value in series [1] is listed as “+++”. Also, the Additional organs/cancerous diseases result in series [2] is on record as “NHL”.

With “479 (SLFGNSGILENV; listed as Homo sapiens) [compound 479]”, the “Peptide Presentation” value in series [1] is reported as “+”. In series [2], the “Other relevant organs/ cancerous diseases” value is “NSCLC, SCLC, HCC, MCC, Urinary bladder Cancer” and the Additional organs/cancerous diseases entry is “Melanoma, Uterine Cancer, AML, HNSCC”.

Regarding “480 (ALLEDSCHYL; listed as Homo sapiens) [compound 480]”, in series [1], the “Peptide Presentation” value is “+”. In series [2], the “Other relevant organs/ cancerous diseases” value is on record as “NSCLC, CRC, HCC, Leukemia, Esophageal Cancer” and the Additional organs/cancerous diseases entry is “HNSCC”.

As to “481 (GLIEDYEALL; listed as Homo sapiens) [compound 481]”, the “Peptide Presentation” value in series [1] was “+++”. For the same substance, in series [2], the “Other relevant organs/ cancerous diseases” value is given as “SCLC” and the Additional organs/cancerous diseases entry is “Melanoma, AML”.

Regarding “482 (SLAPAGIADA; listed as Homo sapiens) [compound 482]”, the “Peptide Presentation” value in series [1] is “+++”. Moreover, the Additional organs/cancerous diseases result in series [2] was “Melanoma, Uterine Cancer, HNSCC”.

As to “483 (ALTDIVSQV; listed as Homo sapiens) [compound 483]”, the “Peptide Presentation” value in series [1] is given as “+”. For the same substance, in series [2], the “Other relevant organs/ cancerous diseases” value is listed as “Urinary bladder Cancer”; the Additional organs/cancerous diseases entry is “NSCLC, SCLC, BRCA, Uterine Cancer, Gallbladder Cancer and Bile Duct Cancer, HNSCC”.

Regarding “486 (AVMESIQGV; listed as Homo sapiens) [compound 486]”, the “Peptide Presentation” value in series [1] was “++”. Moreover, in series [2], the “Other relevant organs/ cancerous diseases” value was “NSCLC, HCC, PrC, Leukemia, Esophageal Cancer, Urinary bladder Cancer, Uterine Cancer” and the Additional organs/cancerous diseases result was “CLL”.

As for “487 (LLINSVFHV; listed as Homo sapiens) [compound 487]”, the “Peptide Presentation” value in series [1] is “+”. Also, in series [2], the “Other relevant organs/ cancerous diseases” value is given as “Melanoma” and the Additional organs/cancerous diseases entry is listed as “Urinary Bladder Cancer, NHL”.

With “488 (FLAEDPKVTL; listed as Homo sapiens) [compound 488]”, in series [1], the “Peptide Presentation” value was “+”. Further, in series [2], the “Other relevant organs/ cancerous diseases” value is “Leukemia” and the Additional organs/cancerous diseases result is given as “CLL, BRCA, Melanoma, Urinary Bladder Cancer, NHL”.

For the substance “489 (KMWEELPEVV; listed as Homo sapiens) [compound 489]”, the “Peptide Presentation” value in series [1] is listed as “+++”. For the same substance, in series [2], the “Other relevant organs/ cancerous diseases” value is listed as “NSCLC, HCC, Leukemia” and the Additional organs/cancerous diseases entry was “CLL, Esophageal Cancer, Urinary Bladder Cancer, AML, NHL, HNSCC”.

In the case of “490 (FLLQHVQEL; listed as Homo sapiens) [compound 490]”, the “Peptide Presentation” value in series [1] is reported as “+++”. In series [2], the “Other relevant organs/ cancerous diseases” value is “Leukemia” and the Additional organs/cancerous diseases entry was “CLL, NHL”.

As to “491 (GLNDRSDAV; listed as Homo sapiens) [compound 491]”, the “Peptide Presentation” value in series [1] was “+++”. In series [2], the “Other relevant organs/ cancerous diseases” value is “Esophageal Cancer, Endometrium” and the Additional organs/cancerous diseases result was “BRCA, AML, HNSCC”.

Regarding “492 (SLFDGFADGLGV; listed as Homo sapiens) [compound 492]”, the “Peptide Presentation” value in series [1] is given as “+++”. Also, in series [2], the “Other relevant organs/ cancerous diseases” value is on record as “NSCLC, SCLC, Brain Cancer, HCC, PrC, Esophageal Cancer” and the Additional organs/cancerous diseases entry is reported as “BRCA”.

As to “494 (ALQPEPIKV; listed as Homo sapiens) [compound 494]”, in series [1], the “Peptide Presentation” value was “+++”. Besides, the “Other relevant organs/ cancerous diseases” value in series [2] is given as “Urinary bladder, Gallbladder, Bile duct”.

In the case of “495 (FIFSEKPVFV; listed as Homo sapiens) [compound 495]”, the “Peptide Presentation” value in series [1] is given as “+”. Further, in series [2], the “Other relevant organs/ cancerous diseases” value is reported as “Urinary bladder Cancer” and the Additional organs/cancerous diseases result is “Melanoma, AML, NHL”.

On to “496 (FLVEKQPPQV; listed as Homo sapiens) [compound 496]”, for which the “Peptide Presentation” value in series [1] is “+++”. For the same substance, in series [2], the “Other relevant organs/ cancerous diseases” value is on record as “Leukemia, Melanoma” and the Additional organs/cancerous diseases entry is “CLL, NHL”.

In the case of “497 (GLLEKLTAI; listed as Homo sapiens) [compound 497]”, the “Peptide Presentation” value in series [1] is on record as “+”. For the same substance, in series [2], the “Other relevant organs/ cancerous diseases” value was “NSCLC, RCC, Esophageal Cancer, Uterine Cancer” and the Additional organs/cancerous diseases result is given as “SCLC, CLL, BRCA, Melanoma, Urinary Bladder Cancer, AML, NHL”.

Regarding “498 (KLWTGGLDNTV; listed as Homo sapiens) [compound 498]”, the “Peptide Presentation” value in series [1] is recorded as “+”. Also, in series [2], the “Other relevant organs/ cancerous diseases” value is on record as “HCC, Esophageal Cancer” and the Additional organs/cancerous diseases entry was “NSCLC, Brain Cancer, CLL, Urinary Bladder Cancer, Uterine Cancer, NHL”.

Consider “499 (KIFDIDEAEEGV; listed as Homo sapiens) [compound 499]”, for which, in series [1], the “Peptide Presentation” value was “+++”. Besides, in series [2], the “Other relevant organs/ cancerous diseases” value is “PC, Melanoma, Esophageal Cancer”.

As for “500 (SLMEDQVLQL; listed as Homo sapiens) [compound 500]”, the “Peptide Presentation” value in series [1] is given as “+”. Moreover, in series [2], the “Other relevant organs/ cancerous diseases” value is listed as “SCLC, Colon, Rectum” and the Additional organs/cancerous diseases result is “CLL, AML”.

For “501 (LLDPNVKSIFV; listed as Homo sapiens) [compound 501]”, in series [1], the “Peptide Presentation” value is listed as “++”. In series [2], the “Other relevant organs/ cancerous diseases” value is “NSCLC, SCLC, Brain Cancer, HCC, PrC, MCC, Melanoma, Esophageal Cancer, Gallbladder Cancer, Bile Duct Cancer” and the Additional organs/cancerous diseases entry is given as “BRCA, Urinary Bladder Cancer, HNSCC”.

With “502 (RLLAQVPGL; listed as Homo sapiens) [compound 502]”, in series [1], the “Peptide Presentation” value was “+++”. In series [2], the “Other relevant organs/ cancerous diseases” value is listed as “RCC, Urinary bladder Cancer”; the Additional organs/cancerous diseases entry is “Melanoma, Uterine Cancer, Gallbladder Cancer and Bile Duct Cancer, AML, NHL”.

With “503 (SLNHFTHSV; listed as Homo sapiens) [compound 503]”, the “Peptide Presentation” value in series [1] is listed as “+”. In addition, in series [2], the “Other relevant organs/ cancerous diseases” value was “NSCLC, Leukemia” and the Additional organs/cancerous diseases entry is listed as “HCC, CLL, Urinary Bladder Cancer, AML, NHL, HNSCC”.

As to “504 (GLSDGNPSL; listed as Homo sapiens) [compound 504]”, the “Peptide Presentation” value in series [1] was “+++”. In series [2], the “Other relevant organs/ cancerous diseases” value is “Leukemia, BrCa” and the Additional organs/cancerous diseases entry is listed as “CLL, Uterine Cancer”.

For “505 (SLAPGDVVRQV; listed as Homo sapiens) [compound 505]”, in series [1], the “Peptide Presentation” value is reported as “+++”. Also, in series [2], the “Other relevant organs/ cancerous diseases” value is “Esophageal Cancer” and the Additional organs/cancerous diseases result was “BRCA, Urinary Bladder Cancer, HNSCC”.

For “506 (KLLGKVETA; listed as Homo sapiens) [compound 506]”, in series [1], the “Peptide Presentation” value is recorded as “+++”. For the same substance, in series [2], the “Other relevant organs/ cancerous diseases” value was “NSCLC, Brain Cancer, Leukemia, Esophageal Cancer” and the Additional organs/cancerous diseases entry is recorded as “CLL, NHL”.

With “507 (KLIDDQDISISL; listed as Homo sapiens) [compound 507]”, in series [1], the “Peptide Presentation” value is “+”. In series [2], the “Other relevant organs/ cancerous diseases” value is “Leukemia” and the Additional organs/cancerous diseases result was “CLL, Urinary Bladder Cancer, NHL”.

For the substance “508 (ILAQEQLVVGV; listed as Homo sapiens) [compound 508]”, the “Peptide Presentation” value in series [1] is listed as “+++”. Moreover, in series [2], the “Other relevant organs/ cancerous diseases” value is reported as “Leukemia, Esophageal Cancer”; the Additional organs/cancerous diseases entry was “SCLC, Gallbladder Cancer and Bile Duct Cancer”.

Consider “510 (KLYSVVSQL; listed as Homo sapiens) [compound 510]”, for which the “Peptide Presentation” value in series [1] is listed as “+++”. In addition, in series [2], the “Other relevant organs/ cancerous diseases” value is “Colon, Rectum, Leukemia” and the Additional organs/cancerous diseases entry was “NHL”.

Take “511 (FLDPYCSASV; listed as Homo sapiens) [compound 511]”: the “Peptide Presentation” value in series [1] is reported as “+++”. The Additional organs/cancerous diseases result in series [2] was “SCLC, Uterine Cancer”.

Regarding “512 (SLSEIVPCL; listed as Homo sapiens) [compound 512]”, in series [1], the “Peptide Presentation” value is reported as “+++”. Moreover, the Additional organs/cancerous diseases result in series [2] was “Uterine Cancer, AML, HNSCC”.
